Measurements published in PMC7106964.
These are yes or no findings as the source states them, for the method shown. Binding seen in cells or lysates may run through a third protein. A yes stands for co-enrichment or nearness to the bait. Other partners may have been found. Sequences can lack the tags named with a protein.

T1: GFP‐tagged RNF8 (UniProt O76064)
T1 sequence: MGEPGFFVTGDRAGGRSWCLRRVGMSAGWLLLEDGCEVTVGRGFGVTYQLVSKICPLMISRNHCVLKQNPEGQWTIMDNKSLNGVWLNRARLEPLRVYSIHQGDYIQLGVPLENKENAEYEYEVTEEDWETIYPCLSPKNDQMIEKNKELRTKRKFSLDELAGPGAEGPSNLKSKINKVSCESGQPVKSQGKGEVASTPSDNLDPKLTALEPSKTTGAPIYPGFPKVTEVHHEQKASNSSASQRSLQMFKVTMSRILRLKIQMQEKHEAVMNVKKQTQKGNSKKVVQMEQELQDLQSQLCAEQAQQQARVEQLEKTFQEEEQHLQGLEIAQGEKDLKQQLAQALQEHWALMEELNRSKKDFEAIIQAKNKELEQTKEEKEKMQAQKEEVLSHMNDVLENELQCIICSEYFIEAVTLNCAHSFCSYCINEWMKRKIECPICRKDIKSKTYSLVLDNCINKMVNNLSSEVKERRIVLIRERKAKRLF


Target: T1, GFP‐tagged RNF8
Experiment: affinity purification with mass spectrometry; GFP-tagged RNF8 expressed in HEK-293T cells, RNF8 complexes isolated, SDS-PAGE bands (coomassie) analysed by mass spectrometry

binding | Molecule
binds | p53 (endogenous, found in the GFP-RNF8 complex) (from UniProt P04637 1-393)
binds | NONO (protein, UniProt Q15233 1-471) MQSNKTFNLEKQNHTPRKHHQHHHQQQHHQQQQQQPPPPPIPANGQQASSQNEGLTIDLKNFRKPGEKTFTQRSRLFVGNLPPDITEEEMRKLFEKYGKAGEVFIHKDKGFGFIRLETRTLAEIAKVELDNMPLRGKQLRVRFACHSASLTVRNLPQYVSNELLEEAFSVFGQVERAVVIVDDRGRPSGKGIVEFSGKPAARKALDRCSEGSFLLTTFPRPVTVEPMDQLDDEEGLPEKLVIKNQQFHKEREQPPRFAQPGSFEYEYAMRWKALIEMEKQQQDQVDRNIKEAREKLEMEMEAARHEHQVMLMRQDLMRRQEELRRMEELHNQEVQKRKQLELRQEEERRRREEEMRRQQEEMMRRQQEGFKGTFPDAREQEIRMGQMAMGGAMGINNRGAMPPAPVPAGTPAPPGPATMMPDGTLGLTPPTTERFGQAATMEGIGAIGGTPPAFNRAAPGAEFAPNKRRRY
